# Measured values as given in the supplement of paper PMC8728848.
# Some of the results follow.
# B1: MCL (Mus musculus), Q9Z2H6 (protein)
# chain: MWLEESQMKSKGTRHPQLIPCVFAVVSISFLSACFISTCLVTHHYFLRWTRGSVVKLSDYHTRVTCIREEPQPGATGGTWTCCPVSWRAFQSNCYFPLNDNQTWHESERNCSGMSSHLVTINTEAEQNFVTQLLDKRFSYFLGLADENVEGQWQWVDKTPFNPHTVFWEKGESNDFMEEDCVVLVHVHEKWVWNDFPCHFEVRRICKLPGITFNWKPSK
# Assays:
# Assay in all cases: glycan array binding signal (z-score within array); higher = stronger binding
# Conditions in all cases: glycan notation: IUPAC condensed, linker removed
# [1] = target: Neu5Ac(a2-3)Gal(b1-4)[Fuc(a1-3)]GlcNAc
# Procedure, shortened: (§1)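 Arrays were curated from the Consortium for Functional Glycomics database, 3228 in total, and kept only where the protein sequence was available. Binding is expressed as a within-array Z-score. This score was averaged across arrays of the same protein sequence at different concentrations or buffers and across linkers, and negative values can be read as non-binding.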
# [2] = target: Neu5Ac(a2-3)Gal(b1-4)[Fuc(a1-3)]GlcNAc(b1-3)Gal
# Procedure, shortened: as §1
# [3] = target: Neu5Ac(a2-3)Gal(b1-4)[Fuc(a1-3)]GlcNAc(b1-3)Gal(b1-4)GlcNAc
# Procedure, shortened: as §1
# [4] = target: Neu5Ac(a2-3)Gal(b1-4)[Fuc(a1-3)]GlcNAc(b1-3)Gal(b1-4)[Fuc(a1-3)]GlcNAc(b1-3)Gal(b1-4)[Fuc(a1-3)]GlcNAc
# Procedure, shortened: as §1
# [5] = target: Neu5Ac(a2-3)Gal(b1-4)[Fuc(a1-3)]GlcNAc(b1-6)[Gal(b1-3)]GalNAc
# Procedure, shortened: as §1
# [6] = target: Neu5Ac(a2-3)Gal(b1-4)[Fuc(a1-3)]GlcNAc6S
# Procedure, shortened: as §1
# [7] = target: Neu5Ac(a2-3)Gal6S(b1-4)GlcNAc
# Procedure, shortened: as §1
# [8] = target: Neu5Ac(a2-3)Gal6S(b1-4)[Fuc(a1-3)]GlcNAc
# Procedure, shortened: as §1
# Neu5Ac(a2-3)GalNAc = target: Neu5Ac(a2-3)GalNAc
# Procedure, shortened: as §1
# [9] = target: Neu5Ac(a2-3)GalNAc(b1-4)GlcNAc
# Procedure, shortened: as §1
# [10] = target: Neu5Ac(a2-3)[GalNAc(b1-4)]Gal(b1-4)Glc
# Procedure, shortened: as §1
# [11] = target: Neu5Ac(a2-3)[GalNAc(b1-4)]Gal(b1-4)GlcNAc
# Procedure, shortened: as §1
# [12] = target: Neu5Ac(a2-3)[Neu5Ac(a2-6)]GalNAc
# Procedure, shortened: as §1
# Neu5Ac(a2-6)Gal = target: Neu5Ac(a2-6)Gal
# Procedure, shortened: as §1
# Neu5Ac(a2-6)Gal(b1-4)Glc = target: Neu5Ac(a2-6)Gal(b1-4)Glc
# Procedure, shortened: as §1
# [13] = target: Neu5Ac(a2-6)Gal(b1-4)GlcNAc
# Procedure, shortened: as §1
# [14] = target: Neu5Ac(a2-6)Gal(b1-4)GlcNAc(b1-2)Man(a1-3)[Gal(b1-4)GlcNAc(b1-2)Man(a1-6)]Man(b1-4)GlcNAc(b1-4)GlcNAc
# Procedure, shortened: as §1
# [15] = target: Neu5Ac(a2-6)Gal(b1-4)GlcNAc(b1-2)Man(a1-3)[GlcNAc(b1-2)Man(a1-6)]Man(b1-4)GlcNAc(b1-4)GlcNAc
# Procedure, shortened: as §1
# [16] = target: Neu5Ac(a2-6)Gal(b1-4)GlcNAc(b1-2)Man(a1-3)[GlcNAc(b1-2)Man(b1-4)GlcNAc(b1-2)Man(a1-6)]Man(b1-4)GlcNAc(b1-4)GlcNAc
# Procedure, shortened: as §1
# [17] = target: Neu5Ac(a2-6)Gal(b1-4)GlcNAc(b1-2)Man(a1-3)[Neu5Ac(a2-6)Gal(b1-4)GlcNAc(b1-2)Man(a1-6)]Man(b1-4)GlcNAc(b1-4)GlcNAc
# Procedure, shortened: as §1
# [18] = target: Neu5Ac(a2-6)Gal(b1-4)GlcNAc(b1-2)Man(a1-6)[Gal(b1-4)GlcNAc(b1-2)Man(a1-3)]Man(b1-4)GlcNAc(b1-4)GlcNAc
# Procedure, shortened: as §1
# [19] = target: Neu5Ac(a2-6)Gal(b1-4)GlcNAc(b1-2)Man(a1-6)[GlcNAc(b1-2)Man(a1-3)]Man(b1-4)GlcNAc(b1-4)GlcNAc
# Procedure, shortened: as §1
# [20] = target: Neu5Ac(a2-6)Gal(b1-4)GlcNAc(b1-3)Gal(b1-4)GlcNAc
# Procedure, shortened: as §1
# [21] = target: Neu5Ac(a2-6)Gal(b1-4)GlcNAc(b1-3)Gal(b1-4)[Fuc(a1-3)]GlcNAc(b1-3)Gal(b1-4)[Fuc(a1-3)]GlcNAc
# Procedure, shortened: as §1
# [22] = target: Neu5Ac(a2-6)Gal(b1-4)GlcNAc6S
# Procedure, shortened: as §1
# Neu5Ac(a2-6)GalNAc = target: Neu5Ac(a2-6)GalNAc
# Procedure, shortened: as §1
# [23] = target: Neu5Ac(a2-6)GalNAc(b1-4)GlcNAc
# Procedure, shortened: as §1
# Neu5Ac(a2-8)Neu5Ac = target: Neu5Ac(a2-8)Neu5Ac
# Procedure, shortened: as §1
# [24] = target: Neu5Ac(a2-8)Neu5Ac(a2-3)Gal(b1-4)Glc
# Procedure, shortened: as §1
# [25] = target: Neu5Ac(a2-8)Neu5Ac(a2-3)[GalNAc(b1-4)]Gal(b1-4)Glc
# Procedure, shortened: as §1
# [26] = target: Neu5Ac(a2-8)Neu5Ac(a2-8)Neu5Ac
# Procedure, shortened: as §1
# [27] = target: Neu5Ac(a2-8)Neu5Ac(a2-8)Neu5Ac(a2-3)Gal(b1-4)Glc
# Procedure, shortened: as §1
# [28] = target: Neu5Ac(a2-8)Neu5Ac(a2-8)Neu5Ac(a2-3)[GalNAc(b1-4)]Gal(b1-4)Glc
# Procedure, shortened: as §1
# [29] = target: Neu5Ac(a2-8)Neu5Ac(a2-8)Neu5Ac(a2-8)Neu5Ac(a2-3)[GalNAc(b1-4)]Gal(b1-4)Glc
# Procedure, shortened: as §1
# [30] = target: Neu5Ac(b2-6)Gal(b1-4)GlcNAc
# Procedure, shortened: as §1
# Neu5Ac(b2-6)GalNAc = target: Neu5Ac(b2-6)GalNAc
# Procedure, shortened: as §1
# [31] = target: Neu5Ac9Ac(a2-6)Gal(b1-4)GlcNAc
# Procedure, shortened: as §1
# [32] = target: Neu5Gc(a2-3)Gal(b1-3)GlcNAc
# Procedure, shortened: as §1
# [33] = target: Neu5Gc(a2-3)Gal(b1-3)[Fuc(a1-4)]GlcNAc
# Procedure, shortened: as §1
# Neu5Gc(a2-3)Gal(b1-4)Glc = target: Neu5Gc(a2-3)Gal(b1-4)Glc
# Procedure, shortened: as §1
# [34] = target: Neu5Gc(a2-3)Gal(b1-4)GlcNAc
# Procedure, shortened: as §1
# [35] = target: Neu5Gc(a2-3)Gal(b1-4)[Fuc(a1-3)]GlcNAc
# Procedure, shortened: as §1
# [36] = target: Neu5Gc(a2-6)Gal(b1-4)GlcNAc
# Procedure, shortened: as §1
# Neu5Gc(a2-6)GalNAc = target: Neu5Gc(a2-6)GalNAc
# Procedure, shortened: as §1
# [37] = target: Neu5Gc(b2-6)Gal(b1-4)GlcNAc
# Procedure, shortened: as §1
binder,measurement,setting,value
B1,glycan array binding signal (z-score),[1],0.196
same,glycan array binding signal (z-score),[2],-0.251
same,glycan array binding signal (z-score),[3],-0.166
same,glycan array binding signal (z-score),[4],-0.558
same,glycan array binding signal (z-score),[5],1.04
same,glycan array binding signal (z-score),[6],0.138
same,glycan array binding signal (z-score),[7],-0.385
same,glycan array binding signal (z-score),[8],0.186
same,glycan array binding signal (z-score),Neu5Ac(a2-3)GalNAc,-0.35
same,glycan array binding signal (z-score),[9],-1.14
same,glycan array binding signal (z-score),[10],-0.336
same,glycan array binding signal (z-score),[11],0.129
same,glycan array binding signal (z-score),[12],-0.824
same,glycan array binding signal (z-score),Neu5Ac(a2-6)Gal,0.4
same,glycan array binding signal (z-score),Neu5Ac(a2-6)Gal(b1-4)Glc,-0.186
same,glycan array binding signal (z-score),[13],-0.219
same,glycan array binding signal (z-score),[14],0.161
same,glycan array binding signal (z-score),[15],0.196
same,glycan array binding signal (z-score),[16],2.17
same,glycan array binding signal (z-score),[17],1.24
same,glycan array binding signal (z-score),[18],0.141
same,glycan array binding signal (z-score),[19],1.82
same,glycan array binding signal (z-score),[20],-0.165
same,glycan array binding signal (z-score),[21],0.74
same,glycan array binding signal (z-score),[22],-0.081
same,glycan array binding signal (z-score),Neu5Ac(a2-6)GalNAc,0.241
same,glycan array binding signal (z-score),[23],-0.814
same,glycan array binding signal (z-score),Neu5Ac(a2-8)Neu5Ac,-0.618
same,glycan array binding signal (z-score),[24],-0.48
same,glycan array binding signal (z-score),[25],-0.713
same,glycan array binding signal (z-score),[26],0.123
same,glycan array binding signal (z-score),[27],0.641
same,glycan array binding signal (z-score),[28],-0.346
same,glycan array binding signal (z-score),[29],1.55
same,glycan array binding signal (z-score),[30],-0.473
same,glycan array binding signal (z-score),Neu5Ac(b2-6)GalNAc,-0.879
same,glycan array binding signal (z-score),[31],0.78
same,glycan array binding signal (z-score),[32],0.192
same,glycan array binding signal (z-score),[33],-0.827
same,glycan array binding signal (z-score),Neu5Gc(a2-3)Gal(b1-4)Glc,-0.554
same,glycan array binding signal (z-score),[34],0.309
same,glycan array binding signal (z-score),[35],-0.147
same,glycan array binding signal (z-score),[36],0.465
same,glycan array binding signal (z-score),Neu5Gc(a2-6)GalNAc,-0.113
same,glycan array binding signal (z-score),[37],0.767

# Some of the entries so far, with bars between the fields:
binder | measurement | setting | value
B1 | glycan array binding signal (z-score) | [29] | 1.55
same | glycan array binding signal (z-score) | [30] | -0.473
